Laboratory results reported in EP4792891A2 (LTZ Therapeutics Inc., dated 2026).
These are yes or no findings as the source states them, for the method shown. Some results given as binding are weak or reduced against the parent protein; the word gives no strength. For some assays here: Where a sequence is shown, tags or fusion partners need not be part of it.

Key:
[1] = biological target: T1, Human CLEC5A (C-type lectin domain family 5 member A) on the cell surface (human) (UniProt Q9NY25); test: flow cytometry on human M0 macrophages
T1 sequence: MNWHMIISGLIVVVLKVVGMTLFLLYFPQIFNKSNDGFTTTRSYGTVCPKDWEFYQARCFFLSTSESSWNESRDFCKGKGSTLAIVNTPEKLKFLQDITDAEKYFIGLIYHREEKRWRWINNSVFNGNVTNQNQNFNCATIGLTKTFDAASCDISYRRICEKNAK

[2] = biological target: T2, recombinant human CLEC5A, His Tag (ACROBiosystems, Cat#: NC1-H52H4) (human) (UniProt Q9NY25); test: BLI, antibody captured on anti-human IgG Fc probe, CLEC5A at 11 nM, 1:1 model
T2 sequence: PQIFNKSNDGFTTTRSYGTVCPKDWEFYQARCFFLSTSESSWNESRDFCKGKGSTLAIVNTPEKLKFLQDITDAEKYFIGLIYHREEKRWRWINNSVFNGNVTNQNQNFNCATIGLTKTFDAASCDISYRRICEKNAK

[3] = biological target: T3, Human CLEC5A His Tag protein (ACROBiosystems, Cat#: CLA-H5243) (human) (UniProt Q9NY25); test: ELISA, plate coated with human CLEC5A
T3 sequence: T2 sequence

B1: chimeric anti-CLEC5A antibody 5C7 (antibody, V domains shown)
VH: QSLEESGGDLVKPGASLTLTCTASGFSFSRSSYMCWVRQAPGKGLEWIGCLSVGDGHTYYASWAKGRFTISKTSSTSVTLQMTRLTAADTATYFCARAPSYSGDGGHGYDLWGPGTLVTVSS
VL: AIVMTQTPSSKSVPVGDTVTINCQASESVDRNNRLAWFQQKPGQPPKLLIYTTSTLASGVPSRFKGSGSGTHFTLTISDVVPDDAATYYCAGYRGAHTDGDAFGGGTEVVVK
binding [1]: binds
binding [2]: binds

B2: chimeric anti-CLEC5A antibody 3A7 (antibody, human IgG1, V domains shown)
VH: QSLEESGGDLVKPGASLTLTCTASGFSFSGMYWICWVRQAPGKGLEWIACIYTGSSTTGYASWAKGRFTISKTSSTTVTLQMTSLTAADTATHFCASPYGDSSHYRGLNLWGPGTLVTVSS
VL: AVVMTQTPASVEAAVGGTVTINCQASQRINNYLSWFQQKPGQPPKLLIYGAATLASGVPSRFKGSGSGTEYTLTISDLEPADAATYYCQCTYGIPSSNYGFGGGTEVVVK
binding [1]: binds
binding [2]: binds

B3: humanized anti-CLEC5A antibody h5C7 (antibody, V domains shown)
VH: EQQLVESGGGLVKPGGSLRLSCAASGFSFSRSSYMCWVRQAPGKCLEWIGCLSVGDGHTYYASWAKGRFTISKDSAKNSVYLQMNSLRAEDTAVYFCARAPSYSGDGGHGYDLWGPGTLVTVSS
VL: DIQMTQSPSSLSASVGDRVTITCQASESVDRNNRLAWFQQKPGKPPKLLIYTTSTLASGVPSRFSGSGSGTDFTLTISSLQPEDVATYYCAGYRGAHTDGDAFGCGTKVEIK
binding [3]: binds

B4: humanized anti-CLEC5A antibody h6A5 (antibody, V domains shown)
VH: EQQLVESGGGLVQPGGSLRLSCSASGFSFSSSYYMCWVRQAPGKGLELIACIYSSSGRTWYATWVNGRFTISRDTSKNTVYLQMNSLRAEDTAVYFCARSYAGYGGYGYAYFNLWGPGTLVTVSS
VL: EIVMTQSPATLSVSPGERATLSCQASEDIYSSLAWYQQKPGQRPRLLIYDASTLASGVPARFSGSGSGTEYTLTISSLQSEDFAVYYCQNYYDSTGSGYGAAFGGGTKVEIK
binding [3]: binds

B5: humanized anti-CLEC5A antibody h7G10 (antibody, V domains shown)
VH: EQQLVESGGGVVQPGRSLRLSCAASGFSFSSGYDMCWVRQAPGKGLEWIACIYGGRSDNVYYARWAKGRFTISKDSSTNTVFLQMNSLRAEDTAVYFCARDYLYRGYIGGGYGRSNLWGPGTLVTVSS
VL: DVQMTQSPSSVSASVGDRVTITCRASEDIENCLAWYQQKPGKPPKLLIYQASKLPSGVPSRFSGSGSGTDYTLTISSLQPEDFATYYCQNPDYMRNTDNLFGGGTKVEIK
binding [3]: binds

B6: humanized anti-CLEC5A antibody h13E6 (antibody, V domains shown)
VH: EQQLLESGGGLVQPGGSLRLSCAASGFSFSSSYWLCWVRQAPGKGLEWIACIYGGSSRGTYYASWAKGRFTISKDSSKNTVYLQMNSLRAEDTAVYFCASHTYTYPRFSPYFNLWGPGTLVTVSS
VL: EFVMTQSPATLSVSPGERATLSCQASEDIESSLAWYQQKPGQPPRLLIYDASDLESGVPARFSGSGSGTEYTLTISSLQSEDFAVYFCQSAYYTGSADNTFGGGTKVEIK
binding [3]: binds
